Measured values: patent US12060400B2, “Peptides for use in immunotherapy against cancers” (Immatics Biotechnologies GmbH, priority 2018, dated 2024)
For some of these results: Expression values are those of the mRNA of the gene that encodes the peptide; a gene is named only where it was looked up.

How the values were obtained:
[1] = test system: HLA molecules of primary tumor and normal tissue samples (cancer entities); test: Identification and label-free LC-MS quantitation of HLA-presented tumor-associated peptides on tissue samples; set-up: species or system human; details: cancer entities on whose tumor tissue samples the HLA-presented peptide was found (LC-MS); abbreviations in the footnotes of Table 8a
[2] = test system: source gene exon mRNA in tumor and normal tissue samples; test: Expression profiling (RNAseq) of genes encoding the peptides, tumor versus normal tissues; set-up: species or system human; details: RNAseq, Table 9a; for Exon Expression in tumor types vs normal tissue panel: over-expressed (+): tumor types in which the peptide's exon is over-expressed (+) vs panel of normal tissues; for Exon Expression in tumor types vs normal tissue panel: very highly over-expressed (+++): tumor types in which the peptide's exon is very highly over-expressed (+++) vs panel of normal tissues; for Exon Expression in tumor types vs normal tissue panel: highly over-expressed (++): tumor types in which the peptide's exon is highly over-expressed (++) vs panel of normal tissues

Substance: 344: peptide found in ABCC4 (gene looked up) (YAYATVLTF; listed as Homo sapiens) [compound 344]
- Peptide Presentation on cancer entities [1]: GBC, GC, NHL, NSCLCadeno, UBC
- Exon Expression in tumor types vs normal tissue panel: over-expressed (+) [2]: PRCA

Substance: 2: peptide found in AFP (gene looked up) (LYAPTILLW; listed as Homo sapiens) [compound 2]
- Peptide Presentation on cancer entities [1]: CRC, GC, NSCLCadeno, NSCLCsquam, UEC
- Exon Expression in tumor types vs normal tissue panel: over-expressed (+) [2]: GBC
- Exon Expression in tumor types vs normal tissue panel: very highly over-expressed (+++) [2]: CCC, HCC

Substance: 204: peptide found in MMP16 (gene looked up) (WQNVTPLTF; listed as Homo sapiens) [compound 204]
- Peptide Presentation on cancer entities [1]: NSCLCsquam
- Exon Expression in tumor types vs normal tissue panel: highly over-expressed (++) [2]: GBM, MEL
- Exon Expression in tumor types vs normal tissue panel: over-expressed (+) [2]: BRCA

Substance: 14: peptide found in CHRNA9 (gene looked up) (YYIATMALI; listed as Homo sapiens) [compound 14]
- Peptide Presentation on cancer entities [1]: PRCA
- Exon Expression in tumor types vs normal tissue panel: highly over-expressed (++) [2]: GBM, HNSCC, SCLC
- Exon Expression in tumor types vs normal tissue panel: over-expressed (+) [2]: MEL, NSCLCadeno, NSCLCsquam, OC, OSCAR, UBC, UEC
- Exon Expression in tumor types vs normal tissue panel: very highly over-expressed (+++) [2]: NSCLCother

Substance: 94: peptide found in MMP12 (gene looked up) (THSGGTNLF; listed as Homo sapiens) [compound 94]
- Peptide Presentation on cancer entities [1]: NSCLCadeno
- Exon Expression in tumor types vs normal tissue panel: highly over-expressed (++) [2]: CCC, CRC, GC, MEL, NHL, NSCLCadeno, OC, OSCAR, PACA, SCLC, UBC, UEC
- Exon Expression in tumor types vs normal tissue panel: over-expressed (+) [2]: HCC, RCC
- Exon Expression in tumor types vs normal tissue panel: very highly over-expressed (+++) [2]: GBC, HNSCC, NSCLCother, NSCLCsquam

Substance: 318: peptide found in FERMT1 (gene looked up) (VQADAKLLF; listed as Homo sapiens) [compound 318]
- Peptide Presentation on cancer entities [1]: GC, NSCLCadeno, UBC
- Exon Expression in tumor types vs normal tissue panel: highly over-expressed (++) [2]: CRC
- Exon Expression in tumor types vs normal tissue panel: over-expressed (+) [2]: GO, HNSCC, NSCLCsquam, OSCAR, UBC

Substance: 28: peptide found in OR51E2 (gene looked up) (FWFDSREISF; listed as Homo sapiens) [compound 28]
- Peptide Presentation on cancer entities [1]: PRCA
- Exon Expression in tumor types vs normal tissue panel: very highly over-expressed (+++) [2]: PRCA

Substance: 334: peptide found in AGTR2 (gene looked up) (KVFGSFLTL; listed as Homo sapiens) [compound 334]
- Peptide Presentation on cancer entities [1]: UEC
- Exon Expression in tumor types vs normal tissue panel: over-expressed (+) [2]: NSCLCother, UEC

Substance: 300: peptide found in CXCR3 (gene looked up) (LFALPDFIF; listed as Homo sapiens) [compound 300]
- Peptide Presentation on cancer entities [1]: NSCLCadeno
- Exon Expression in tumor types vs normal tissue panel: highly over-expressed (++) [2]: CLL

Substance: 281: peptide found in ROS1 (gene looked up) (MDQNQVVWTF; listed as Homo sapiens) [compound 281]
- Peptide Presentation on cancer entities [1]: NSCLCadeno
- Exon Expression in tumor types vs normal tissue panel: highly over-expressed (++) [2]: NSCLCadeno
- Exon Expression in tumor types vs normal tissue panel: over-expressed (+) [2]: NSCLCother, NSCLCsquam

Substance: 284: peptide found in ROS1 (gene looked up) (QFYSTLPNTI; listed as Homo sapiens) [compound 284]
- Peptide Presentation on cancer entities [1]: HCC
- Exon Expression in tumor types vs normal tissue panel: highly over-expressed (++) [2]: NSCLCadeno
- Exon Expression in tumor types vs normal tissue panel: over-expressed (+) [2]: NSCLCother, NSCLCsquam

Substance: 48: peptide found in LOXL4 (gene looked up) (AWSPPATLFLF; listed as Homo sapiens) [compound 48]
- Peptide Presentation on cancer entities [1]: GC, MEL, NSCLCsquam, OC, RCC
- Exon Expression in tumor types vs normal tissue panel: highly over-expressed (++) [2]: MEL
- Exon Expression in tumor types vs normal tissue panel: over-expressed (+) [2]: CCC

Substance: 215: peptide found in PTPRZ1 (gene looked up) (KASKITFHW; listed as Homo sapiens) [compound 215]
- Peptide Presentation on cancer entities [1]: GBM
- Exon Expression in tumor types vs normal tissue panel: highly over-expressed (++) [2]: GBM

Substance: 80: peptide found in CDK6 (gene looked up) (SYATPVDLW; listed as Homo sapiens) [compound 80]
- Peptide Presentation on cancer entities [1]: AML, CCC, MEL, NSCLCsquam
- Exon Expression in tumor types vs normal tissue panel: highly over-expressed (++) [2]: AML
- Exon Expression in tumor types vs normal tissue panel: over-expressed (+) [2]: GBM, GC

Substance: 266: peptide found in CSF2 (gene looked up) (TQIITFESF; listed as Homo sapiens) [compound 266]
- Peptide Presentation on cancer entities [1]: MEL
- Exon Expression in tumor types vs normal tissue panel: highly over-expressed (++) [2]: HNSCC
- Exon Expression in tumor types vs normal tissue panel: over-expressed (+) [2]: NSCLCadeno, NSCLCsquam, OSCAR, UBC

Substance: 216: peptide found in LOXL4 (gene looked up) (RHYHSIEVF; listed as Homo sapiens) [compound 216]
- Peptide Presentation on cancer entities [1]: HCC
- Exon Expression in tumor types vs normal tissue panel: highly over-expressed (++) [2]: MEL

Substance: 275: peptide found in PTPRZ1 (gene looked up) (PEYSLPVLTF; listed as Homo sapiens) [compound 275]
- Peptide Presentation on cancer entities [1]: NHL
- Exon Expression in tumor types vs normal tissue panel: highly over-expressed (++) [2]: GBM

Substance: 341: peptide found in ADCY8 (gene looked up) (RYENVSILF; listed as Homo sapiens) [compound 341]
- Peptide Presentation on cancer entities [1]: GBM, OC
- Exon Expression in tumor types vs normal tissue panel: over-expressed (+) [2]: GBM

Substance: 176: peptide found in FLT3 (gene looked up) (TQAGEYLLF; listed as Homo sapiens) [compound 176]
- Peptide Presentation on cancer entities [1]: AML
- Exon Expression in tumor types vs normal tissue panel: highly over-expressed (++) [2]: AML

Substance: 12: peptide found in CHRNA9 (gene looked up) (KYMSRVLFVY; listed as Homo sapiens) [compound 12]
- Peptide Presentation on cancer entities [1]: CCC
- Exon Expression in tumor types vs normal tissue panel: highly over-expressed (++) [2]: GBM, HNSCC, SCLC
- Exon Expression in tumor types vs normal tissue panel: over-expressed (+) [2]: MEL, NSCLCadeno, NSCLCsquam, OC, OSCAR, UBC, UEC
- Exon Expression in tumor types vs normal tissue panel: very highly over-expressed (+++) [2]: NSCLCother

Substance: 326: peptide found in DYRK4 (gene looked up) (VHMKDFFYF; listed as Homo sapiens) [compound 326]
- Peptide Presentation on cancer entities [1]: CLL, MEL, NHL, NSCLCadeno, NSCLCsquam, OC, PACA
- Exon Expression in tumor types vs normal tissue panel: over-expressed (+) [2]: CLL, NHL

Substance: 201: peptide found in PTPRZ1 (gene looked up) (VFPSVDVSF; listed as Homo sapiens) [compound 201]
- Peptide Presentation on cancer entities [1]: CRC, GBM
- Exon Expression in tumor types vs normal tissue panel: highly over-expressed (++) [2]: GBM

Substance: 15: peptide found in SLC6A3 (gene looked up) (FMVIAGMPLF; listed as Homo sapiens) [compound 15]
- Peptide Presentation on cancer entities [1]: AML, CLL, GC, HCC, NHL, NSCLCother
- Exon Expression in tumor types vs normal tissue panel: over-expressed (+) [2]: NSCLCadeno, NSCLCsquam
- Exon Expression in tumor types vs normal tissue panel: very highly over-expressed (+++) [2]: RCC

Substance: 59: peptide found in PTPRZ1 (gene looked up) (VFPLVTPLL; listed as Homo sapiens) [compound 59]
- Peptide Presentation on cancer entities [1]: GBM
- Exon Expression in tumor types vs normal tissue panel: highly over-expressed (++) [2]: GBM

Substance: 289: peptide found in FOXP3 (gene looked up) (RTLNEIYHW; listed as Homo sapiens) [compound 289]
- Peptide Presentation on cancer entities [1]: NSCLCadeno, NSCLCsquam
- Exon Expression in tumor types vs normal tissue panel: highly over-expressed (++) [2]: NHL

Substance: 79: peptide found in SUCNR1 (gene looked up) (FYIVTRPLAF; listed as Homo sapiens) [compound 79]
- Peptide Presentation on cancer entities [1]: NHL, NSCLCadeno
- Exon Expression in tumor types vs normal tissue panel: highly over-expressed (++) [2]: CCC
- Exon Expression in tumor types vs normal tissue panel: over-expressed (+) [2]: AML

Substance: 223: peptide found in PTPRZ1 (gene looked up) (KLRALSILF; listed as Homo sapiens) [compound 223]
- Peptide Presentation on cancer entities [1]: PRCA
- Exon Expression in tumor types vs normal tissue panel: highly over-expressed (++) [2]: GBM

Substance: 67: peptide found in PTPRZ1 (gene looked up) (SYVLQIVAI; listed as Homo sapiens) [compound 67]
- Peptide Presentation on cancer entities [1]: GBM, MEL
- Exon Expression in tumor types vs normal tissue panel: highly over-expressed (++) [2]: GBM

Substance: 227: peptide found in CYP1A1 (gene looked up) (YLPNPSLNAF; listed as Homo sapiens) [compound 227]
- Peptide Presentation on cancer entities [1]: CLL, GC, NSCLCadeno, NSCLCsquam
- Exon Expression in tumor types vs normal tissue panel: highly over-expressed (++) [2]: NSCLCother

Substance: 18: peptide found in MMP12 (gene looked up) (KYVDINTFRL; listed as Homo sapiens) [compound 18]
- Peptide Presentation on cancer entities [1]: NSCLCsquam
- Exon Expression in tumor types vs normal tissue panel: highly over-expressed (++) [2]: CCC, GC, MEL, NHL, NSCLCadeno, OC, PACA, UEC
- Exon Expression in tumor types vs normal tissue panel: over-expressed (+) [2]: HCC, RCC
- Exon Expression in tumor types vs normal tissue panel: very highly over-expressed (+++) [2]: CRC, GBC, HNSCC, NSCLCother, NSCLCsquam, OSCAR, SCLC, UBC

Substance: 66: peptide found in PLA2G2D (gene looked up) (IYKDYYRYNF; listed as Homo sapiens) [compound 66]
- Peptide Presentation on cancer entities [1]: NHL
- Exon Expression in tumor types vs normal tissue panel: highly over-expressed (++) [2]: NHL
- Exon Expression in tumor types vs normal tissue panel: over-expressed (+) [2]: MEL

Substance: 19: peptide found in CYP4Z1 (gene looked up) (ILLCMSLLLF; listed as Homo sapiens) [compound 19]
- Peptide Presentation on cancer entities [1]: NSCLCadeno, NSCLCsquam, PRCA
- Exon Expression in tumor types vs normal tissue panel: very highly over-expressed (+++) [2]: BRCA

Substance: 71: peptide found in CYP1A1 (gene looked up) (RYLPNPSLNAF; listed as Homo sapiens) [compound 71]
- Peptide Presentation on cancer entities [1]: HCC, NSCLCadeno
- Exon Expression in tumor types vs normal tissue panel: highly over-expressed (++) [2]: NSCLCother
